Here are results for one compound from patent publication US3958011A, “Compositions of tri-n-propylacetic acid and salts thereof and treatment of neurological disorders with such compositions” (priority 1972, dated 1976).

The LD50 is the dose expected to kill half of the subjects tested. Low readings indicate greater toxicity, high ones lower toxicity.

The data set can be described thus: Acute toxicity (LD50), technique of Karber and Behrens. Particulars: mouse, in vivo, ip. As for the experimental part: The LD50 was determined on the mouse by intraperitonel route using the technique of KARBER and BEHRENS.

In turn, `CN1C(=O)CN=C(c2ccccc2)c2cc(Cl)ccc21` [diazepam, reference compound] came in with a median lethal dose (LD50) of 55 mg/kg.
